{
  "source": "patent US10183080B2",
  "about": "(The Government of the United States of America, as …, priority 2016, dated 2019)",
  "data": [
    {"test": "general procedure: Boc solid-phase peptide synthesis", "details": "whole synthesis", "values": [
      {"substance": "[RRRRRRRRRFG]4-x-K′K′WP9G2H6", "outcome": "the 4×, 8×, 16× peptide dendrimers could not be synthesized in linear SPPS fashion"},
      {"substance": "[RRRRRRRRRFG]8-x-K′K′K′WP9G2H6", "outcome": "the 4×, 8×, 16× peptide dendrimers could not be synthesized in linear SPPS fashion"},
      {"substance": "[RRRRRRRRRFG]16-x-K′K′K′K′WP9G2H6", "outcome": "the 4×, 8×, 16× peptide dendrimers could not be synthesized in linear SPPS fashion"}
    ]}
  ]
}
